Experimental findings from PMC11078990, “Identification and characterization of small molecule inhibitors of the LINE-1 retrotransposon endonuclease” (Nature Communications, 2024) are described below.

The chains behind the UniProt entries cited, without tags or fusion partners.
UniProt P27695, whole entry: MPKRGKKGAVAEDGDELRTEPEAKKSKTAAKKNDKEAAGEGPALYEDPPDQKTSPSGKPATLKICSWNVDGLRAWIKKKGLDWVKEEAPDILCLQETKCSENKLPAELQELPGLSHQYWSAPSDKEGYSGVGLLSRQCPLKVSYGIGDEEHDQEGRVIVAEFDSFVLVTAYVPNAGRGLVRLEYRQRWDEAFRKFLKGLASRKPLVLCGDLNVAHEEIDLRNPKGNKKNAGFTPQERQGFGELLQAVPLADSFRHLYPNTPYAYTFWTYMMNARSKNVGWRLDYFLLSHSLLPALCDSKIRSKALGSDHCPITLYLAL

This test concerns the target APE1 (Homo sapiens, UniProt P27695). The test is described as follows: APE1 fluorescent oligonucleotide activity assay (abasic site substrate). Particulars: 25 µM; Supplementary Fig. 6b, replicates 1-3. It counts as biochemical.

A number of entries come with more than one value. They are shown here; other results are not. An entry can have further records. Values given together differ, and nothing given here explains why; some may be repeats, others may stem from another dose, organism or construct than stated.

For the molecule `CCn1c2ccccc2c2cc(/C=N\Nc3cc(C)nc4cc5c(cc34)OCO5)ccc21`, the “Percent APE1 activity, replicates” value is on record as 0.4024%, 0.4746%, -0.4799%.
